Measurements taken from article PMC3958441, “Isl1 and Pou4f2 Form a Complex to Regulate Target Genes in Developing Retinal Ganglion Cells” (PLoS ONE, 2014).
Construct, isoform or probe ends are uncertain for at least one entry. At least one verdict rests on a figure or table, not on a statement of the authors. Where a protein sequence is shown, tags need not be part of it.

Molecular target: T1, Isl1D2 (mouse) (UniProt P61372)
T1 sequence (looked up): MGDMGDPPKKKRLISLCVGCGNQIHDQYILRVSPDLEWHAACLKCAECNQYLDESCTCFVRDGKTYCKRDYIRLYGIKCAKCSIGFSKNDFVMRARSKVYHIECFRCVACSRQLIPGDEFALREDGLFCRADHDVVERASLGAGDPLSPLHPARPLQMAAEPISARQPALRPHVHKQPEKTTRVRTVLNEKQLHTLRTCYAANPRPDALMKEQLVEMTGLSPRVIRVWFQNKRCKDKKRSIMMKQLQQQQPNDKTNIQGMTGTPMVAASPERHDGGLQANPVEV
Assay: EMSA
Conditions: EMSA: 20 mM Tris-HCl pH 7.5, 50 mM NaCl, 10 mM DTT, 1 mM EDTA, 5% glycerol, 200 ng dI/dC, 200 ng each protein in 20 ul, 4 C, 30 min, 8% PAGE, 1x TBE, recombinant protein, residues 1-284, protein details: His (C-terminal)

| Sequence | binding result |
| --- | --- |
| GATCTCTCCTGCATAATTAATTACCCCCGGAT / GATCCGGGGGTAATTAATTATGCAGGAGAGAT [CBRN3(W)] | binds |
| GCACACGACCCAATGAATTAATAACCGGGCTG / GCAGCCCGGTTATTAATTCATTGGGTCGTGTG [SBRN3(W)] | binds |
